Consider two substances from patent US5874529A (Peptor Ltd., priority 1994, dated 1999).

This data set can be described thus: solid-phase peptide synthesis. Conditions: whole synthesis.

“Ada-D-Arg-Arg-N^α (6-acetamidohexylene)Gly-Hyp-Phe-D-Asp(NH-Me)-D-Phe-Phe-Arg-OH”: the isolated mass was 48 mg. In addition, where the note is “HPLC (Method G), scale of the general procedure 0.1 mmol, 0.25 mmol”, the “final HPLC purity” value amounted to 93%. Where the note is “scale of the general procedure 0.1 mmol, 0.25 mmol”, this substance registered an isolated yield of 64%.

Take “H-D-Arg-Arg-cyclo(N^α (4-propanoyl)Gly-Hyp-Phe-N^α (3-amido-propyl)-S-Phe)-Ser-D-Phe-Phe-Arg-OH”: for the setting “scale 0.250 mmole”, the isolated mass came to 74 mg and the isolated yield worked out at 42%.
